# Results taken from PubChem BioAssay AID493014 (National Center for Advancing Translational Sciences (NCATS), 2011).
# This is one part of the list. Further columns of the screen follow, without active or inactive calls. Most of these compounds were active or inconclusive in the main read-out, so they are no random draw. Potencies come from curve fits of mixed quality, noted in brackets.
# Assay: qHTS Assay to Find Inhibitors of Chronic Active B-Cell Receptor Signaling
# Conditions: ABC-DLBCL IkBa-CBG/CBR reporter, luminescence ratio (green luciferase fused to IkBa over red control in TMD8 lymphoma cells), 4 h
# In short: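 TMD8 ABC-DLBCL cells carrying doxycycline-inducible green luciferase fused to IkappaBalpha plus unfused red luciferase were exposed to compounds (up to 46 uM) for 4 hrs at 37C. Activity came from the overlap-corrected green/red luminescence ratio.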
# [1] = measured here: CBR red luminescence, cell number
# [2] = measured here: IkBa-CBG green luminescence
smiles,measurement,setting,value
CSc1cccc(NC(=O)c2[nH]c(C)c(C(C)=O)c2C)c1,AC50,[1],"2.51 µM [rising, full curve, poor fit]"
NC(=O)C1(N2CCCCC2)CCN(Cc2ccc(F)cc2)CC1,AC50,[1],"25.9 µM [falling, single point]"
O=c1oc(-c2ccccc2)cc(Cl)c1Cl,AC50,[1],"12.6 µM [falling, partial curve, poor fit]"
Cc1ccc2nc(NC(=O)c3ccc(Cn4cc(Cl)cn4)o3)sc2c1,AC50,[1],"1.46 µM [falling, full curve, poor fit]"
CCOC(=O)CSc1nnc(NC(=O)c2cccc([N+](=O)[O-])c2C)s1,AC50,[1],"1.84 µM [falling, full curve]"
COc1c(C(=O)NC(=S)Nc2nnn(C)n2)cc2ccccc2c1Br,AC50,[1],"35.5 µM [falling, single point]"
Cc1cc(C(=O)N/N=C/c2ccc(OCc3ccccc3)cc2)c(C)o1,AC50,[1],"11.2 µM [falling, partial curve, poor fit]"
CCn1c(=O)c(CCC(=O)N2CCOCC2)c(C)c2c(C)nn(-c3ccccc3)c21,AC50,[1],"35.5 µM [falling, single point]"
CCSc1nc2sccc2c(=O)n1-c1ccccc1,AC50,[1],"11.2 µM [rising, partial curve, poor fit]"
N#CCSc1nnc(-c2sc3ccccc3c2Cl)o1,AC50,[1],"20.6 µM [falling, single point]"
O=c1ccnc(S/C=C/c2ccccc2)[nH]1,AC50,[1],"6.31 µM [falling, full curve]"
Cc1nn(C)c(C)c1CS(=O)(=O)c1ccccc1,AC50,[1],"2.82 µM [rising, partial curve, poor fit]"
COc1ccccc1N(CC(=O)NC1CCCC1)S(=O)(=O)c1cccc(C(F)(F)F)c1,AC50,[1],"29.1 µM [falling, partial curve, poor fit]"
Cc1ccc(C(=O)OCC(=O)NC(=O)c2cccn2C)cc1,AC50,[1],"14.6 µM [rising, single point]"
CCn1cc(C(=O)NCCc2ccc(Cl)cc2)c(=O)c2cc(S(=O)(=O)N(C)C)ccc21,AC50,[1],"22.4 µM [rising, single point]"
S=C(NCCC(c1ccccc1)c1ccccc1)Nc1cccc(Cl)c1,AC50,[1],"35.5 µM [falling, single point]"
same,AC50,[2],"17.8 µM [rising, partial curve, poor fit]"
Cc1c(NS(=O)(=O)c2cccc([N+](=O)[O-])c2)c(=O)n(-c2ccccc2)n1C,AC50,[1],"35.5 µM [rising, partial curve, poor fit]"
CCOc1ccc2nc(SCC#N)c(C#N)cc2c1,AC50,[1],"23.1 µM [rising, partial curve]"
c1ccc2oc(SCc3cn4ccsc4n3)nc2c1,AC50,[1],"12.6 µM [falling, single point]"
CCOC1=C/C(=C/c2c(N)n3nc(-c4ccccc4)sc3nc2=O)C=CC1=O,AC50,[1],"10 µM [falling, partial curve, poor fit]"
O=C(c1ccc(C#Cc2ccccc2)o1)N1CCN(c2ccccn2)CC1,AC50,[1],"1.12 µM [rising, full curve, poor fit]"
Cc1cc2ccccc2n1CCNC(=O)Cc1cccc2ccccc12,AC50,[1],"14.6 µM [falling, partial curve]"
COc1cc(C(=O)NCCN2CCN(C(=O)c3cc(OC)c(OC)c(OC)c3)CC2)cc(OC)c1OC,AC50,[1],"2.82 µM [rising, partial curve]"
O=C(Nc1cccnc1Cl)c1cc2ccccc2o1,AC50,[1],"35.5 µM [falling, single point]"
O=C(N/N=C/c1cccc2nccnc12)c1ccccc1O,AC50,[1],"5.01 µM [falling, partial curve]"
COc1ccccc1N1CCN(CC(=O)Nc2ccc(S(=O)(=O)N3CCCCCC3)cc2)CC1,AC50,[1],"18.4 µM [rising, partial curve, poor fit]"
CN1CCN(CC#CC2(O)CCCCC2)CC1,AC50,[1],"35.5 µM [falling, single point]"
O=C(CSc1cn[nH]n1)Nc1cccc(C(=O)O)c1,AC50,[1],"8.91 µM [falling, partial curve, poor fit]"
O=C(NNC(=S)NC1CC2CCC1C2)c1ccc(Cl)cc1 (stereo not drawn),AC50,[1],"10 µM [falling, partial curve]"
Cc1ccc2c(c1)C(c1ccccc1)N(C(=O)c1ccc(Br)o1)CC(=O)N2 (stereo not drawn),AC50,[1],"23.1 µM [falling, single point]"
Cc1c(C)c(C)c(/C=[N+](/C)[O-])c(C)c1C,AC50,[1],"18.4 µM [falling, single point]"
CN1CCCC1CCNc1ccc2c(=O)c3ccccc3oc2c1 (stereo not drawn),AC50,[1],"22.4 µM [falling, single point]"
same,AC50,[2],"20 µM [rising, single point]"
CCOC(=O)C(CSCc1ccccc1)NC(=O)OC(C)(C)C (stereo not drawn),AC50,[1],"6.31 µM [falling, single point]"
CC(C)c1nc2sc3c(=O)[nH]cnc3c2c2c1CCC2,AC50,[1],"5.8 µM [rising, partial curve]"
CCCCN1C(=O)N(C)C2NC(=O)NC21 (stereo not drawn),AC50,[1],"0.231 µM [falling, full curve, poor fit]"
O=C(CN1C(=O)CCS(=O)(=O)c2ccccc21)Nc1ccc(F)cc1,AC50,[1],"20 µM [falling, single point]"
Cc1nc2sc(C(c3ccco3)N3CCN(C(c4ccccc4)c4ccccc4)CC3)c(O)n2n1 (stereo not drawn),AC50,[1],"29.1 µM [falling, single point]"
COc1ccccc1OC(=O)Cc1cccc2ccccc12,AC50,[1],"12.6 µM [rising, partial curve]"
CCOC(=O)N1CCN(CC(=O)Nc2cc(OC)c(OC)cc2C#N)CC1,AC50,[1],"31.6 µM [rising, single point]"
ONC(=Nc1ccc(Cl)cc1)c1ccc(Cl)cc1,AC50,[1],"7.31 µM [rising, partial curve, poor fit]"
Cc1ccc(-c2nc(N)n(C(=O)c3ccco3)n2)cc1,AC50,[1],"35.5 µM [falling, single point]"
COc1ccc(/C=C/C(=O)N(C)c2ccccc2C(=O)O)cc1,AC50,[1],"22.4 µM [rising, partial curve, poor fit]"
Cc1cccc(NC(c2ccc(C)s2)c2ccc3ccc(C)nc3c2O)n1 (stereo not drawn),AC50,[1],"14.6 µM [falling, single point]"
Cc1cccc(N2CCN(C(=O)CNC(=O)Cc3ccccc3)CC2)c1C,AC50,[1],"29.1 µM [falling, single point]"
N#Cc1cc(-c2ccccc2)nc(Oc2ccc(Cl)cc2)n1,AC50,[1],"10.3 µM [rising, partial curve, poor fit]"
N#CCCN(C(=O)COC(=O)c1ccc2c(c1)OCO2)c1ccccc1,AC50,[1],"3.66 µM [rising, single point]"
CCN(CC)c1nc(Oc2ccc(C(=O)NN)cc2)nc(Oc2ccc(C(=O)NN)cc2)n1,AC50,[1],"5.62 µM [falling, partial curve, poor fit]"
O=C(N/N=C/c1ccc(Br)cc1)c1ccc(Br)o1,AC50,[1],"13 µM [falling, partial curve, poor fit]"
Cc1noc(C(=O)Nc2ccc(F)cc2F)c1Cl,AC50,[1],"8.91 µM [falling, partial curve]"
COC(=O)c1[nH]c2ccc(C)cc2c1NC(=O)CN1CCN(C(=O)c2ccccc2)CC1,AC50,[1],"0.82 µM [rising, partial curve, poor fit]"
COc1ccccc1CNC(=O)C(=O)c1cn(CC(=O)N2CCOCC2)c2ccccc12,AC50,[1],"3.55 µM [falling, partial curve]"
O=C(O)c1ccc(/C=N/NC(=O)c2ccc3c(c2)OCCO3)cc1,AC50,[1],"8.91 µM [falling, partial curve, poor fit]"
Cc1ccc(C)c(N2C(=O)CS/C2=N\NC(=O)c2ccccc2Cl)c1,AC50,[1],"29.1 µM [falling, single point]"
Clc1ccc2nc(N3CCN(c4ccccc4)CC3)sc2c1,AC50,[1],"0.0291 µM [rising, full curve, poor fit]"
CCC(C)NS(=O)(=O)c1ccc(OCC(=O)N2CCC(C)CC2)cc1 (stereo not drawn),AC50,[1],"9.2 µM [rising, partial curve, poor fit]"
CCCCCCNC(=O)c1ccc(Br)o1,AC50,[1],"7.31 µM [rising, partial curve, poor fit]"
Cc1cc(=O)c2c(o1)CC(C)(C)CC2=O,AC50,[1],"8.2 µM [rising, partial curve, poor fit]"
CN(C)C(=O)C(CCN1CCC(O)(c2ccc(Cl)cc2)CC1)(c1ccccc1)c1ccccc1,AC50,[1],"18.4 µM [falling, partial curve]"
same,AC50,[2],"12.6 µM [rising, partial curve, poor fit]"
COc1ccccc1NC(=O)Cc1noc(CSc2cc(C)c3ccccc3n2)n1,AC50,[1],"32.6 µM [falling, single point]"
COc1ccccc1/C=C/C1(C(=O)NC2CCCC2)CC(=O)N1c1ccc(F)cc1 (stereo not drawn),AC50,[1],"1.3 µM [falling, partial curve, poor fit]"
same,AC50,[2],"0.82 µM [rising, full curve, poor fit]"
O=C(Nc1ccc(Cl)cc1)Nc1nc(-c2ccccc2)cs1,AC50,[1],"1.12 µM [rising, full curve, poor fit]"
CN(c1ccccc1)S(=O)(=O)c1cccc(NC(=O)Cc2c(F)cccc2Cl)c1,AC50,[1],"16.4 µM [falling, single point]"
COc1ccc(N2CCN(CC(O)COc3ccc(F)cc3)CC2)cc1 (stereo not drawn),AC50,[1],"3.55 µM [rising, single point]"
CCN(CC)C(=O)Cn1c(=O)oc2ccccc21,AC50,[1],"2.82 µM [falling, single point]"

# A stretch from further up, as a working copy:
smiles,measurement,setting,value
CCOC(=O)C(CSCc1ccccc1)NC(=O)OC(C)(C)C (stereo not drawn),AC50,[1],"6.31 µM [falling, single point]"
CC(C)c1nc2sc3c(=O)[nH]cnc3c2c2c1CCC2,AC50,[1],"5.8 µM [rising, partial curve]"
CCCCN1C(=O)N(C)C2NC(=O)NC21 (stereo not drawn),AC50,[1],"0.231 µM [falling, full curve, poor fit]"
